Assay: Activation of model prodrugs by tetrazines (release of model drug, HPLC-MS)
Details: for release of 3,5-dimethylaniline: 20 hr

O=C(NCc1ccccc1)OC1/C=C/CCCCC1 (stereo not drawn) [32 minor isomer, (E)-cyclooct-2-en-1-yl benzylcarbamate]
release of benzylamine (activator 3,6-bis(2-aminophenyl)-1,2,4,5-tetrazine (9), DMSO-d6/D2O, 20° C., 24 hr): release of benzylamine | release of benzylamine (activator 3,6-bis(2-pyridinyl)-1,2,4,5-tetrazine (2), acetonitrile/water, 20° C., 24 hr): release of benzylamine | release of benzylamine (activator 3,6-bis(4-hydroxyphenyl)-1,2,4,5-tetrazine (11), acetonitrile/water, 20° C., 5 hr): release of benzylamine | release of benzylamine (activator 3,6-diphenyl-1,2,4,5-tetrazine, general procedure): release of benzylamine | release of benzylamine (activator 6-H-3-(4-aminomethylphenyl)-1,2,4,5-tetrazine, general procedure): release of benzylamine | release of benzylamine (activator 6-methyl-3-(4-butanamido-2-pyridinyl)-1,2,4,5-tetrazine, general procedure): release of benzylamine | release of benzylamine (activator 6-phenyl-3-(3-aminophenyl)-1,2,4,5-tetrazine, general procedure): release of benzylamine | release of benzylamine (activator 6-phenyl-3-(4-aminophenyl)-1,2,4,5-tetrazine, general procedure): release of benzylamine

Cc1cc(C)cc(NC(=O)OC2/C=C/CCCCC2)c1 (stereo not drawn) [33 minor isomer, (E)-cyclooct-2-en-1-yl(3,5-dimethylphenyl)carbamate]
release of 3,5-dimethylaniline (activator 3,6-bis(2-aminophenyl)-1,2,4,5-tetrazine (9), acetonitrile/PBS, 20° C.): release of 3,5-dimethylaniline | release of 3,5-dimethylaniline (activator 3,6-bis(4-hydroxyphenyl)-1,2,4,5-tetrazine (11), acetonitrile/PBS, 20° C.): release of 3,5-dimethylaniline | release of 3,5-dimethylaniline (activator 3,6-diphenyl-1,2,4,5-tetrazine, acetonitrile/PBS, 20° C.): release of 3,5-dimethylaniline | release of 3,5-dimethylaniline (activator 3-(2-pyridyl)-6-methyl-1,2,4,5-tetrazine (7), PBS, 20° C.): release of 3,5-dimethylaniline

Source: patent US9421274B2, “Bio-orthogonal drug activation” (Koninklijke Philips N.V., priority 2011, dated 2016)
